Results on 1 molecule are retold here after US20020088015A1 (published 2002).

Chains of the proteins cited; added tags and fusions are not shown.
UniProt P25490, whole entry: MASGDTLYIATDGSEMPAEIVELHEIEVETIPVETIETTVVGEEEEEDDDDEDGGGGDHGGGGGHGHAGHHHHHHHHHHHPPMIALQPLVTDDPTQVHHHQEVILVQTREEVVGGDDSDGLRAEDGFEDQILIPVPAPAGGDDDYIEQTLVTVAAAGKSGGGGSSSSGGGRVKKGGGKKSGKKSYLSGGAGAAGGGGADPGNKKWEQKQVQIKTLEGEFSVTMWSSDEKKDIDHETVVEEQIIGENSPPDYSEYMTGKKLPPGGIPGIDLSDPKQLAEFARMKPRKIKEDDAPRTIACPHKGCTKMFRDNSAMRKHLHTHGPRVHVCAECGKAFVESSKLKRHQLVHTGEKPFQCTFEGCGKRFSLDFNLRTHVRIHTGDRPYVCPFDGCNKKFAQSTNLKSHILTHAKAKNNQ

In the test the target is in vitro transcribed/translated ^35S-labeled YY1 (pGem7zf(+)-YY1) (UniProt P25490 1-414, ^35S-methionine labeled). The test is described as follows: GST affinity matrix assay. As to the method:
All GST fusion proteins were purified as described (Kaelin Jr., W. G. et al. (1991) Cell 64:521-531) and the yield of each protein was determined by SDS-PAGE analysis and Coomassie blue staining. GST proteins bound to glutathione-agarose beads (Sigma, St. Louis, Mo.) were washed twice in NET-50 (20 mM Tris pH8,0, 1 mM EDTA, 50 mM NaCl) for 15 min at room temperature and were incubated in 200 μl binding buffer [25 mM HEPES pH7.5, 12.5 mM MgCl₂, 20% glycerol, 0.1%NP-40, 150 mM KCl, 1 mM dithiothreitol (DTT), 150 μg/ml bovine serum albumin (BSA), 200 μg per ml ethidium bromide (EtBr)] for 10 min at room temperature. In vitro transcription/translation reactions (Promega, Madison, Wis.) containing ³⁵S-methionine (1175 Ci/mmol) were programmed with pSP64-WT1 or pGem7zf(+)-YY1 and 5 μl was incubated with immobilized GST-fusion proteins for 1 hr at room temperature as indicated. The beads were washed five times with 1 ml washing buffer (20 mM Tris pH8.0, 100 mM NaCl, 1 mM EDTA, 0.5% NP-40, 200 μg/ml EtBr). Bound proteins were eluted with Laemmli sample buffer, separated on a 10% SDS-polyacrylamide gel which was soaked in the fluorographic solution “Amplify” purchased from Amersham and visualized by fluorography. […]

B1: GST-Ciao-1 (other)
chain: MKDSLVLLGRVPAHPDSRCWFLAWNPAGTLLASCGGDRRIRIWGTEGDSWICKSVLSEGHQRTVRKVAWSPCGNYLASASFDATTCIWKKNQDDFECVTTLEGHENEVKSVAWAPSGNLLATCSRDKSVWVWEVDEEDEYECVSVLNSHTQDVKHVVWHPSQELLASASYDDTVKLYREEEDDWVCCATLEGHESTVWSLAFDPSGQRLASCSDDRTVRIWRQYLPGNEQGVACSGSDPSWKCICTLSGFHSRTIYDIAWCQLTGALATACGDDAIRVFQEDPNSDPQQPTFSLTAHLHQAHSQDVNCVAWNPKEPGLLASCSDDGEVAFWKYQRPEGL
notes: not shown: glutathione-S-transferase from vector GEX-2TK
B1: the binding result was “no binding”.
